In publication PMC5324091:
Results are given in words; binding and its absence hold for the method and conditions named. In cells and extracts the contact can be indirect. Some entries that bind do so weakly or less than the wild type. Sequences can lack the tags named with a protein.

Protein sequences, listed by entry. Tags and fused reporters are not part of them.
UniProt Q00987: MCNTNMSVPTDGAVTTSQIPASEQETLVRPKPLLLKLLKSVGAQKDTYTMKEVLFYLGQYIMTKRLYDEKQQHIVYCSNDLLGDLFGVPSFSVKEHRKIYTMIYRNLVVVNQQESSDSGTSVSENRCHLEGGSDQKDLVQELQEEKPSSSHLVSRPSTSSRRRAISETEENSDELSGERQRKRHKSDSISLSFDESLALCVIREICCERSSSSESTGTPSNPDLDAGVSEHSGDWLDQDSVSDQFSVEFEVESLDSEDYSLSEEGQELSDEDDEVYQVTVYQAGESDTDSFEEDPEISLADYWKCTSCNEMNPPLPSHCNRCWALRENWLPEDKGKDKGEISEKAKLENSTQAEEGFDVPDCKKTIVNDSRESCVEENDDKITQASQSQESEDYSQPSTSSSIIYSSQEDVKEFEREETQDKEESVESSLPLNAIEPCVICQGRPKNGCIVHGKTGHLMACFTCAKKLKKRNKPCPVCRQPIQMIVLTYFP

Target: wild-type human Mdm2 (human) (UniProt Q00987)
Test: co-IP; Mdm2 and Flag-USP48 (wild type, C98S or S1) overexpressed in HEK293T; MG132 15 uM for 4 h; lysis in 150 mM NaCl, 50 mM Tris-HCl pH 8.0, 1% Triton X-100; immunoprecipitation at 4 °C with anti-Mdm2 Ab1 or anti-Flag M2, protein G-Sepharose; Western blot

binding	Binder
binds	Flag-tagged wild-type USP48 (ubiquitin-specific peptidase 48) (enzyme, UniProt Q86UV5 1-1035) MAPRLQLEKAAWRWAETVRPEEVSQEHIETAYRIWLEPCIRGVCRRNCKGNPNCLVGIGEHIWLGEIDENSFHNIDDPNCERRKKNSFVGLTNLGATCYVNTFLQVWFLNLELRQALYLCPSTCSDYMLGDGIQEEKDYEPQTICEHLQYLFALLQNSNRRYIDPSGFVKALGLDTGQQQDAQEFSKLFMSLLEDTLSKQKNPDVRNIVQQQFCGEYAYVTVCNQCGRESKLLSKFYELELNIQGHKQLTDCISEFLKEEKLEGDNRYFCENCQSKQNATRKIRLLSLPCTLNLQLMRFVFDRQTGHKKKLNTYIGFSEILDMEPYVEHKGGSYVYELSAVLIHRGVSAYSGHYIAHVKDPQSGEWYKFNDEDIEKMEGKKLQLGIEEDLAEPSKSQTRKPKCGKGTHCSRNAYMLVYRLQTQEKPNTTVQVPAFLQELVDRDNSKFEEWCIEMAEMRKQSVDKGKAKHEEVKELYQRLPAGAEPYEFVSLEWLQKWLDESTPTKPIDNHACLCSHDKLHPDKISIMKRISEYAADIFYSRYGGGPRLTVKALCKECVVERCRILRLKNQLNEDYKTVNNLLKAAVKGSDGFWVGKSSLRSWRQLALEQLDEQDGDAEQSNGKMNGSTLNKDESKEERKEEEELNFNEDILCPHGELCISENERRLVSKEAWSKLQQYFPKAPEFPSYKECCSQCKILEREGEENEALHKMIANEQKTSLPNLFQDKNRPCLSNWPEDTDVLYIVSQFFVEEWRKFVRKPTRCSPVSSVGNSALLCPHGGLMFTFASMTKEDSKLIALIWPSEWQMIQKLFVVDHVIKITRIEVGDVNPSETQYISEPKLCPECREGLLCQQQRDLREYTQATIYVHKVVDNKKVMKDSAPELNVSSSETEEDKEEAKPDGEKDPDFNQSNGGTKRQKISHQNYIAYQKQVIRRSMRHRKVRGEKALLVSANQTLKELKIQIMHAFSVAPFDQNLSIDGKILSDDCATLGTLGVIPESVILLKADEPIADYAAMDDVMQVCMPEEGFKGTGLLGH
binds	Flag-tagged USP48 mutant C98S (enzyme, UniProt Q86UV5 1-1035) MAPRLQLEKAAWRWAETVRPEEVSQEHIETAYRIWLEPCIRGVCRRNCKGNPNCLVGIGEHIWLGEIDENSFHNIDDPNCERRKKNSFVGLTNLGATSYVNTFLQVWFLNLELRQALYLCPSTCSDYMLGDGIQEEKDYEPQTICEHLQYLFALLQNSNRRYIDPSGFVKALGLDTGQQQDAQEFSKLFMSLLEDTLSKQKNPDVRNIVQQQFCGEYAYVTVCNQCGRESKLLSKFYELELNIQGHKQLTDCISEFLKEEKLEGDNRYFCENCQSKQNATRKIRLLSLPCTLNLQLMRFVFDRQTGHKKKLNTYIGFSEILDMEPYVEHKGGSYVYELSAVLIHRGVSAYSGHYIAHVKDPQSGEWYKFNDEDIEKMEGKKLQLGIEEDLAEPSKSQTRKPKCGKGTHCSRNAYMLVYRLQTQEKPNTTVQVPAFLQELVDRDNSKFEEWCIEMAEMRKQSVDKGKAKHEEVKELYQRLPAGAEPYEFVSLEWLQKWLDESTPTKPIDNHACLCSHDKLHPDKISIMKRISEYAADIFYSRYGGGPRLTVKALCKECVVERCRILRLKNQLNEDYKTVNNLLKAAVKGSDGFWVGKSSLRSWRQLALEQLDEQDGDAEQSNGKMNGSTLNKDESKEERKEEEELNFNEDILCPHGELCISENERRLVSKEAWSKLQQYFPKAPEFPSYKECCSQCKILEREGEENEALHKMIANEQKTSLPNLFQDKNRPCLSNWPEDTDVLYIVSQFFVEEWRKFVRKPTRCSPVSSVGNSALLCPHGGLMFTFASMTKEDSKLIALIWPSEWQMIQKLFVVDHVIKITRIEVGDVNPSETQYISEPKLCPECREGLLCQQQRDLREYTQATIYVHKVVDNKKVMKDSAPELNVSSSETEEDKEEAKPDGEKDPDFNQSNGGTKRQKISHQNYIAYQKQVIRRSMRHRKVRGEKALLVSANQTLKELKIQIMHAFSVAPFDQNLSIDGKILSDDCATLGTLGVIPESVILLKADEPIADYAAMDDVMQVCMPEEGFKGTGLLGH
